The target in test [1] is T1, FLAG-tagged PDZD8-FL, stably expressed in MEFs (not stated (T527 is the human residue number)) (UniProt Q8NEN9).
T1 sequence: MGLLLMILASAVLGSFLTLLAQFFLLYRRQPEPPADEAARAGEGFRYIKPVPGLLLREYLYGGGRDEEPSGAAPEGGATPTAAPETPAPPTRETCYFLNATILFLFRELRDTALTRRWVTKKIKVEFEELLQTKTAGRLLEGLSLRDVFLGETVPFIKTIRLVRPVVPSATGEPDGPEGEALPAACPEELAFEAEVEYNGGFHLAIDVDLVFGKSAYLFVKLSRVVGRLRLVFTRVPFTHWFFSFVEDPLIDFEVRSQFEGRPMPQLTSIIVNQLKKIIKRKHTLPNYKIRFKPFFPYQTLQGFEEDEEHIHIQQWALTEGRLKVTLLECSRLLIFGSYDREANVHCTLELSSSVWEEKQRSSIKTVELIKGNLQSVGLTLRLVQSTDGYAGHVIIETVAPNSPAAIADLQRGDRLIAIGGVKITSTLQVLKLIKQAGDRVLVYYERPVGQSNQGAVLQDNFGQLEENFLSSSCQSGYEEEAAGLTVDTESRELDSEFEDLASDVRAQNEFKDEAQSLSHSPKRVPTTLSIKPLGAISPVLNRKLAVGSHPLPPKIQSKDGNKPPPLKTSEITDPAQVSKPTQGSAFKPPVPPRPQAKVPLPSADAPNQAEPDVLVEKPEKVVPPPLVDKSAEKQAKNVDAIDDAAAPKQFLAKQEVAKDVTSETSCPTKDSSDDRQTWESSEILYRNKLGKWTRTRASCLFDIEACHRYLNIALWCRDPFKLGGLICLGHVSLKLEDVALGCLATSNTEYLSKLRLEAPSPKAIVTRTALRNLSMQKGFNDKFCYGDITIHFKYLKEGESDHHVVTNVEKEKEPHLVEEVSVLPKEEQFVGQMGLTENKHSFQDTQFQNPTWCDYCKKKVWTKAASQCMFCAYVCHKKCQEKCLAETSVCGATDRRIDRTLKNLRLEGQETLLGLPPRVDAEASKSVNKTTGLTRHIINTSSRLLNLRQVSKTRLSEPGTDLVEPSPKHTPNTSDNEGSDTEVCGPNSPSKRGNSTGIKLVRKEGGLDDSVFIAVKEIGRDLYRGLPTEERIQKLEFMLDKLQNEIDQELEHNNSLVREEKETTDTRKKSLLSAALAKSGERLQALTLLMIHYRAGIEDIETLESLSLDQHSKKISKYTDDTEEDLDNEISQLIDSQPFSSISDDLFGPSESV
The experiment in a line: co-IP.

Sequences of proteins named here, by UniProt entry; tags and fusion partners are left off. A change or cut given only in a name is not applied to a line headed by its entry. A line that says so, or that is headed by a name, gives the form on record, which may keep a tag or linker. Residues count along the entry.
UniProt D3Z7P3, residues 55-674: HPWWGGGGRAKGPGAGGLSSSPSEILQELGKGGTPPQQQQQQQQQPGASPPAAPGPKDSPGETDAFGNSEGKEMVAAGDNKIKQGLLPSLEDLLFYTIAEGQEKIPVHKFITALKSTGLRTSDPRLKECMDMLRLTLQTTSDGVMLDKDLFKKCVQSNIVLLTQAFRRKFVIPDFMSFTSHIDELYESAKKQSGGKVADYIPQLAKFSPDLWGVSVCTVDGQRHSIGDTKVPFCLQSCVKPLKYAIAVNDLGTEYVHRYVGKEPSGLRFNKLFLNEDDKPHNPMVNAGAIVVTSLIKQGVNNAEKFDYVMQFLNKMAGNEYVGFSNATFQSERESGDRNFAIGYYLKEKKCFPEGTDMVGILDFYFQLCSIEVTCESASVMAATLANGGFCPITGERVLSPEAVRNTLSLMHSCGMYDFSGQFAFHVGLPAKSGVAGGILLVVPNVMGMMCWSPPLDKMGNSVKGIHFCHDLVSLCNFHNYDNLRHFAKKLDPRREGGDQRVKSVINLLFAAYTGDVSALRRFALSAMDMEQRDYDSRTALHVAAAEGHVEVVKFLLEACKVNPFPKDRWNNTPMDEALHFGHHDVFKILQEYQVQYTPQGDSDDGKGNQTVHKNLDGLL
Myc-tagged KGA, HEK293T (O94925, residues 55-669): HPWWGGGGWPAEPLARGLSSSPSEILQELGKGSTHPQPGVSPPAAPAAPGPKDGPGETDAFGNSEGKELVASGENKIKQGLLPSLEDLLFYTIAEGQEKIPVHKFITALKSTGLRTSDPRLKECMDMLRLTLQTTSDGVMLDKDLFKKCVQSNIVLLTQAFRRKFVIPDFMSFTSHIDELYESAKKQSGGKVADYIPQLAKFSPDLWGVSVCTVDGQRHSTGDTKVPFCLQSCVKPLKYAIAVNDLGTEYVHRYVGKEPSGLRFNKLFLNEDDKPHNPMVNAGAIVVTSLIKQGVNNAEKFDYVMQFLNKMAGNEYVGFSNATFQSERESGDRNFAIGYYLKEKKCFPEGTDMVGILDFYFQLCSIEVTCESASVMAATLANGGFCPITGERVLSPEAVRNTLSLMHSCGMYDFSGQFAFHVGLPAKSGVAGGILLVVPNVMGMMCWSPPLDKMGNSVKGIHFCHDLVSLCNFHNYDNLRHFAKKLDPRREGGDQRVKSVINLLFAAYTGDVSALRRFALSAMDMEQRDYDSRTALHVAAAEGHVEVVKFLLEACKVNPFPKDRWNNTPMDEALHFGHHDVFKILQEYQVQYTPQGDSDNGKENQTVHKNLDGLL
Myc-tagged GAC, HEK293T (O94925-3, form named): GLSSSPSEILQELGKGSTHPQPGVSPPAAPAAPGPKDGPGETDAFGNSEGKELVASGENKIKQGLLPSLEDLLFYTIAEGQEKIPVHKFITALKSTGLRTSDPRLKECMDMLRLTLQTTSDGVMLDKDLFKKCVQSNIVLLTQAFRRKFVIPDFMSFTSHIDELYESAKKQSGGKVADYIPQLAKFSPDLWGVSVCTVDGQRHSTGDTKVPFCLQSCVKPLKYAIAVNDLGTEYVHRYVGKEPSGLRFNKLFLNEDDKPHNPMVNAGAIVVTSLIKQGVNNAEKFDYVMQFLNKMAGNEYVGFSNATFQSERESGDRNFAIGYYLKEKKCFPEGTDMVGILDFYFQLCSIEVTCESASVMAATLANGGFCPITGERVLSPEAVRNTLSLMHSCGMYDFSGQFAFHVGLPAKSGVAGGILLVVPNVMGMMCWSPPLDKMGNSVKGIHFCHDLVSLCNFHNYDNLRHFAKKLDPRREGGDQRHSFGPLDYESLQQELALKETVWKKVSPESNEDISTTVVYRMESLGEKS

For test [2], the target named is T2, FLAG-tagged PDZD8 (full length), HEK293T (not stated (T527 is the human residue number)) (UniProt Q8NEN9).
T2 sequence: T1 sequence
The test can be described thus: co-IP.

The record followed here is paper doi:10.1101/2023.07.20.548338.

No constants are given. Whether binding was seen depends on the method and setting. In cells and extracts the contact can be indirect. Some binding calls cover weakened binding; strength is not graded here. Where a sequence is shown, tags or fusion partners need not be part of it.

As for “glutaminase 1 (GLS1; both KGA and GAC), endogenous in MEFs (from UniProt D3Z7P3 55-674)”, in test [1], the binding result was “binds”.

For the substance “Myc-tagged KGA, HEK293T (from UniProt O94925 55-669) (enzyme)”, the binding entry in test [2] is “binds”. Still for that read-out and setting: under “Myc-tagged GAC, HEK293T (from UniProt O94925-3 71-598) (enzyme)” stands “binds”.
